Results: patent publication US12428389B2, “Diarylamide compound and application thereof” (Sunshine Lake Pharma Co., Ltd., priority 2019, dated 2025)
At least one structure is not confirmed: it was looked up by name or label, or the drawing left a doubt.

How the values were obtained:
Assay type in all cases: in vivo
C57BL/6J mice [1] = assay: single subcutaneous injection, diuretic effect in mice (metabolic cage); details: 100 mg/kg subcutaneous
C57BL/6J mice [2] = assay: single intragastric administration, diuretic effect in mice (metabolic cage); details: 100 mg/kg intragastric
SD rats [3] = assay: single subcutaneous injection, diuretic effect in rats (metabolic cage); details: 100 mg/kg subcutaneous
Protocol: The urine collection system was siliconized in advance to prevent urine loss. […] Solvent control: corn oil. The weight of urine was measured by the weight loss method and converted to volume (1 g≈1 mL). […] The peak of the diuretic effect was at 4 h after administration, and the duration of the diuretic effect was about 6-8 h. The results were shown as means±SEM, n=6. The urine osmotic pressure of the collected urine was measured by using a freezing point osmometer. […] The peak of action was at 4 h after administration, and returned to the level before administration at 6-8 h after administration. The results were shown as means±SEM, n=6. The urine samples were detected by using a urea kit for the level of urea in the urine. According to the previously measured urine volume, urine osmotic pressure and urea excretion per 2 h, the excretion of non-urea solutes per 2 h was calculated. […] The results were shown as means±SEM, n=6.

SD rats [4] = assay: long-term (7 days) intragastric administration, diuretic effect in rats
SD rats [5] = assay: single intragastric administration, diuretic effect in rats (metabolic cage); details: 100 mg/kg
Protocol: The urine collection system was siliconized in advance to prevent urine loss. […] The weight of urine was measured by the weight loss method and converted to volume (1 g≈1 mL). […] Urine volume began to rise at 2 h after administration, the peak of diuretic effect was at 4 h after administration, and the duration of diuretic effect was about 6-8 h. The results were shown as means±SEM, n=6. The urine osmotic pressure of the collected urine was measured by using a freezing point osmometer. […] The peak of action was at 4 h after administration, and recovered to the level before administration at 6-8 h after administration. The results were shown as means±SEM, n=6. Urine samples were detected by using a urea kit for the level of urea in the urine. According to the previously measured urine volume, urine osmotic pressure and urea excretion per 2 h, the excretion of non-urea solutes per 2 h was calculated. […] C57BL/6J mice, male, 6 in each group, weighing 20˜22 g, were taken. […] The urine collection system was siliconized in advance to prevent urine loss. […] Solvent control: CMC-Na. The weight of urine was measured by the weight loss method and converted to volume (1 g≈1 mL). […] The results were shown as means±SEM, n=6. The urine osmotic pressure of the collected urine was measured by using a freezing point osmometer. […] The results were shown as means±SEM, n=6. The urine samples were detected by using a urea kit for the level of urea in the urine. According to the previously measured urine volume, urine osmotic pressure and urea excretion per 2 h, the excretion of non-urea solutes per 2 h was calculated. […] The results were shown as means ±SEM, n=6.

C57BL/6J mice [6] = assay: long-term (7 days) intragastric administration, diuretic effect in mice; details: 100 mg/kg intragastric every 8 h
[7] = 100 mg/kg intragastric every 8 h, 7 days, vs control
[8] = day 7 of 100 mg/kg intragastric every 8 h

For CC(=O)Nc1ccc(NC(=O)c2ccc([N+](=O)[O-])o2)cc1 [Example 3, N-(4-acetamidophenyl)-5-nitrofuran-2-carboxamide], the “non-urea solute excretion per 2 h” value (C57BL/6J mice [1]; vs control) was “no significant change”, the “diuretic effect (urine volume)” value (C57BL/6J mice [1]; vs solvent control) was “obvious diuretic effect” and the urine osmotic pressure (C57BL/6J mice [1]; vs solvent control) was “significantly reduce”. For the same molecule, the “non-urea solute excretion per 2 h” value (C57BL/6J mice [2]; vs control) was “no significant change”, the “diuretic effect (urine volume)” value (C57BL/6J mice [2]; vs solvent control) was “obvious diuretic effect” and the urine osmotic pressure (C57BL/6J mice [2]; vs solvent control) was “significantly reduce”. The “non-urea solute excretion per 2 h” value (SD rats [3]; vs control) was “no significant change”, the “diuretic effect (urine volume)” value (SD rats [3]; vs solvent control) was “obvious diuretic effect” and the urine osmotic pressure (SD rats [3]; vs solvent control) was “significantly reduce”. The “urine osmotic pressure, course (lasted to the 7th day)” value (SD rats [4]; 100 mg/kg intragastric every 8 h, 7 days) was “began to reduce on the first day”, the “urine volume, course (lasted to the 7th day)” value (SD rats [4]; 100 mg/kg intragastric every 8 h, 7 days, urine per 24 h) was “began to increase on the first day” and the “non-urea solute excretion per 24 h” value (SD rats [4]; [7]) was “no significant change”. The “urea excretion per 24 h” value (SD rats [4]; [7]) was “no significant change”, the diuretic effect (SD rats [4]; 100 mg/kg intragastric every 8 h, 7 days, vs solvent control) was “obvious diuretic effect” and the “concentration of non-urea solutes in the renal inner medulla tissue fluid” value (SD rats [4]; [8]) was “no significant change”. The “concentration of urea in the renal inner medulla tissue fluid” value (SD rats [4]; [8]) was “decreased”, the “osmotic pressure in the renal inner medulla tissue fluid” value (SD rats [4]; [8]) was “reduced significantly” and the “non-urea solute excretion per 2 h” value (SD rats [5]; single (FIG. 5: intragastric), vs control) was “no significant change”. The urine osmotic pressure (SD rats [5]; single (FIG. 5: intragastric), vs solvent control) was “significantly reduce”, the “diuretic effect (urine volume)” value (SD rats [5]; single, CMC-Na control (FIG. 5: intragastric)) was “obvious diuretic effect” and the “urine osmotic pressure, course (lasted to the 7th day)” value (C57BL/6J mice [6]) was “began to reduce on the first day”. The “urine volume, course (lasted to the 7th day)” value (C57BL/6J mice [6]; urine per 24 h) was “began to increase on the first day” and the diuretic effect (C57BL/6J mice [6]; vs solvent control) was “obvious diuretic effect”.
